{
  "source": "patent US8487006B2",
  "about": "“Method of enhancing TGF-β signalling” (Auxagen, Inc., priority 2008, dated 2013)",
  "system": "wild-type mice",
  "experiment": "Wild-type mice treated with dynasore (organ pathology, coronary artery histology, TβR-II staining, plasma cholesterol)",
  "type": "in vivo",
  "details": "dynasore 1 mg/kg every two days for 8 weeks, indirect immunofluorescent staining",
  "method": "Wild-type and ApoE-null mice were treated with vehicle only (a, c) or 1 mg/kg dynasore (b, d) every two days for 8 weeks. The coronary arteries were removed from the animals and subjected to histological analysis by H & E staining (A) and indirect immunofluorescent staining for TβR-II(B). The asterisk (*) indicates the location of the lumen in coronary arteries. The arrow indicates the immunofluorescent staining of TβR-II in the aortic endothelium.\nWe hypothesize that TGF-β enhancers such as inhibitors of clathrin-dependent endocytosis may ameliorate atherosclerosis caused by cholesterol-induced suppression of TGF-β responsiveness in vascular cells^3,12. To test our hypothesis, we treated hypercholesterolemic ApoE-null mice with dynasore (1 mg/kg body weight) via intraperitoneal administration every two days for 8 weeks. We chose dynasore for two reasons. […] At 50 μM, it enhances TGF-β-stimulated expression of PAI-1 in these cell types by ˜4-5 fold, 2) Dynasore is the only inhibitor tested which alone is capable of stimulating PAI-1 expression. […] The plasma levels of cholesterol in wild-type mice treated with either vehicle only or dynasore were 120±10 and 125±20 mg/dl, respectively.\nHowever, no TβR-II staining was found in the aortic endothelium and smooth muscle of coronary arteries in ApoE-null mice treated with vehicle only (FIG. 4Bc).",
  "data": [
    {"smiles": "O=C(N/N=C/c1ccc(O)c(O)c1)c1cc2ccccc2cc1O", "note": "[dynasore]", "values": [
      {"measurement": "TβR-II staining of coronary arteries", "result": "staining was found in the aortic endothelium as well as in the smooth muscle of coronary arteries"}
    ]}
  ]
}
